# Results reported in patent US8785682B2, “Tetranor PGDM: a biomarker of PGD2 synthesis in vivo” (The Trustees of the University of Pennsylvania, priority 2007, dated 2014).
# Experiment: Endogenous PGD2 metabolites in human urine by HPLC/MS/MS
# Type: in vivo
# Conditions: no treatment, mean±SEM
row,Structure (SMILES),level of endogenous PGD2 metabolite in human urine
1,"CCCCC[C@H](O)/C=C/[C@@H]1[C@@H](C/C=C\CC(=O)O)[C@@H](O)C[C@@H]1O [2,3-dinor-11β-PGF2α]",0.6±0.1 ng/mg creatinine
2,CCCCC[C@H](O)/C=C/[C@@H]1[C@@H](C/C=C\CCCC(=O)O)[C@@H](O)C[C@@H]1O [11β-PGF2α],below the limits of detection
3,"O=C(O)CCCCC(=O)CC[C@H]1C(=O)C[C@H](O)[C@@H]1CCC(=O)O [tetranor PGDM, 11,15-dioxo-9α-hydroxy-2,3,4,5-tetranor-prostan-1,20-dioic acid]",1.5±0.3 ng/mg creatinine
